Measured values published in patent publication US20050256134A1, “Use of creatine analogues and creatine kinase modulators for the prevention and treatment of glucose metabolic disorders” (AVICENA GROUP, INC., priority 1995, published 2005).
Further values from the same series stand in other lists.

Test system: terminal cancer patients
Test: Phase I/II open label dose escalation study, glucose levels, 3 hour continuous infusion
Assay type: in vivo, human
Method: Cyclocreatine was tested in humans in a phase I/II open label dose escalation study. […] Cyclocreatine was administered at doses that ranged from 10 mg/Kg to 100 mg/Kg. The schedule of administration of cyclocreatine is described in Table 4.
Cohorts of 3 patients were administered drug at each dose level, via a 3 hour continuous infusion in one liter volume of saline. The first week patients received cyclocreatine once, the second week patients received cyclocreatine twice, the third week three times, the fourth week four times, the fifth week five times. On weeks six and seven, no drug was administered to allow the drug to wash out. On week eight, cyclocreatine was given five times. The study included a total of 23 patients (18 male, 5 female) with a median age of 71 years (range 54-85). The patients had different types of malignancies. Eligibility requirements included patients who have failed standard therapy or for whom no therapy was available, normal organ function, have recovered from prior therapies, probability of survival of greater than three months. Reasons for exclusion included: major surgery, life threatening concurrent illness and CNS metastasis. Blood samples were collected at baseline and 1 day before and after the last weekly drug administration on days 1, 7, 9, 14, 17, 21, 25, 28, 33, 40, 47, 49, 54, 61, and 69. Glucose levels were determined for these collected blood samples. […] Not all patients experienced a significant drop in glucose although the trend was there. FIGS. 14 and 15 illustrate graphically individual patients' glucose levels upon treatment with 60 mg/Kg or 80 mg/Kg cyclocreatine. Patient (A) at the 80 mg/Kg dose was diabetic and had many serious complications due to their disease. […] It should be noted that an insufficient number of readings was made shortly after drug administration. It is interesting to note that several patients who were diabetic or had higher glucose levels than normal did respond to cyclocreatine, onen example being illustrated in FIG. 16.

## NC1=NCCN1CC(=O)O [cyclocreatine]
Patient 15, 80 mg/Kg, Study Day 17
  Glucose: 63 mg/dL
Patient 15, 80 mg/Kg, Study Day 21
  Glucose: 72 mg/dL
Patient 15, 80 mg/Kg, Study Day 25
  Glucose: 62 mg/dL
Patient 15, 80 mg/Kg, Study Day 28
  Glucose: 89 mg/dL
Patient 15, 80 mg/Kg, Study Day 33
  Glucose: 67 mg/dL
Patient 15, 80 mg/Kg, Study Day 40
  Glucose: 106 mg/dL
Patient 15, 80 mg/Kg, Study Day 47
  Glucose: 77 mg/dL
Patient 15, 80 mg/Kg, Study Day 49
  Glucose: 89 mg/dL
Patient 15, 80 mg/Kg, Study Day 54
  Glucose: 87 mg/dL
Patient 15, 80 mg/Kg, Study Day 61
  Glucose: 81 mg/dL
Patient 15, 80 mg/Kg, Study Day 69
  Glucose: 81 mg/dL
Patient 16, 80 mg/Kg, Study Day 0
  Glucose: 182 mg/dL
Patient 16, 80 mg/Kg, Study Day 1
  Glucose: 102 mg/dL
Patient 16, 80 mg/Kg, Study Day 7
  Glucose: 102 mg/dL
Patient 16, 80 mg/Kg, Study Day 9
  Glucose: 68 mg/dL
Patient 16, 80 mg/Kg, Study Day 14
  Glucose: 94 mg/dL
Patient 16, 80 mg/Kg, Study Day 17
  Glucose: 47 mg/dL
Patient 16, 80 mg/Kg, Study Day 21
  Glucose: 30 mg/dL
Patient 17, 100 mg/Kg, Study Day 0
  Glucose: 121 mg/dL
Patient 17, 100 mg/Kg, Study Day 1
  Glucose: 122 mg/dL
Patient 17, 100 mg/Kg, Study Day 7
  Glucose: 127 mg/dL
Patient 17, 100 mg/Kg, Study Day 9
  Glucose: 145 mg/dL
Patient 17, 100 mg/Kg, Study Day 14
  Glucose: 71 mg/dL
Patient 17, 100 mg/Kg, Study Day 17
  Glucose: 150 mg/dL
Patient 17, 100 mg/Kg, Study Day 21
  Glucose: 104 mg/dL
Patient 17, 100 mg/Kg, Study Day 25
  Glucose: 102 mg/dL
Patient 17, 100 mg/Kg, Study Day 28
  Glucose: 125 mg/dL
Patient 17, 100 mg/Kg, Study Day 33
  Glucose: 136 mg/dL
Patient 17, 100 mg/Kg, Study Day 40
  Glucose: 162 mg/dL
Patient 17, 100 mg/Kg, Study Day 47
  Glucose: 108 mg/dL
Patient 17, 100 mg/Kg, Study Day 49
  Glucose: 80 mg/dL
Patient 17, 100 mg/Kg, Study Day 54
  Glucose: 114 mg/dL
Patient 17, 100 mg/Kg, Study Day 61
  Glucose: 122 mg/dL
Patient 17, 100 mg/Kg, Study Day 69
  Glucose: 86 mg/dL
Patient 18, 100 mg/Kg, Study Day 0
  Glucose: 122 mg/dL
Patient 18, 100 mg/Kg, Study Day 1
  Glucose: 98 mg/dL
Patient 18, 100 mg/Kg, Study Day 7
  Glucose: 104 mg/dL
Patient 18, 100 mg/Kg, Study Day 9
  Glucose: 84 mg/dL
Patient 18, 100 mg/Kg, Study Day 14
  Glucose: 126 mg/dL
Patient 18, 100 mg/Kg, Study Day 17
  Glucose: 97 mg/dL
Patient 18, 100 mg/Kg, Study Day 21
  Glucose: 85 mg/dL
Patient 18, 100 mg/Kg, Study Day 25
  Glucose: 80 mg/dL
Patient 18, 100 mg/Kg, Study Day 28
  Glucose: 71 mg/dL
Patient 18, 100 mg/Kg, Study Day 33
  Glucose: 119 mg/dL
Patient 18, 100 mg/Kg, Study Day 47
  Glucose: 114 mg/dL
Patient 18, 100 mg/Kg, Study Day 49
  Glucose: 95 mg/dL
Patient 18, 100 mg/Kg, Study Day 54
  Glucose: 49 mg/dL
Patient 18, 100 mg/Kg, Study Day 61
  Glucose: 80 mg/dL
Patient 18, 100 mg/Kg, Study Day 69
  Glucose: 84 mg/dL
Patient 19, 100 mg/Kg, Study Day 0
  Glucose: 115 mg/dL
Patient 19, 100 mg/Kg, Study Day 1
  Glucose: 101 mg/dL
Patient 19, 100 mg/Kg, Study Day 7
  Glucose: 87 mg/dL
Patient 19, 100 mg/Kg, Study Day 9
  Glucose: 92 mg/dL
Patient 19, 100 mg/Kg, Study Day 21
  Glucose: 50 mg/dL
Patient 20, 100 mg/Kg, Study Day 0
  Glucose: 104 mg/dL
Patient 20, 100 mg/Kg, Study Day 1
  Glucose: 104 mg/dL
Patient 20, 100 mg/Kg, Study Day 7
  Glucose: 160 mg/dL
Patient 20, 100 mg/Kg, Study Day 9
  Glucose: 77 mg/dL
Patient 20, 100 mg/Kg, Study Day 14
  Glucose: 90 mg/dL
Patient 20, 100 mg/Kg, Study Day 17
  Glucose: 151 mg/dL
Patient 20, 100 mg/Kg, Study Day 21
  Glucose: 76 mg/dL
Patient 20, 100 mg/Kg, Study Day 25
  Glucose: 111 mg/dL
Patient 20, 100 mg/Kg, Study Day 28
  Glucose: 137 mg/dL
Patient 20, 100 mg/Kg, Study Day 33
  Glucose: 165 mg/dL
Patient 20, 100 mg/Kg, Study Day 40
  Glucose: 141 mg/dL
Patient 20, 100 mg/Kg, Study Day 47
  Glucose: 101 mg/dL
Patient 20, 100 mg/Kg, Study Day 49
  Glucose: 99 mg/dL
Patient 20, 100 mg/Kg, Study Day 54
  Glucose: 91 mg/dL
Patient 21, 100 mg/Kg, Study Day 0
  Glucose: 158 mg/dL
Patient 21, 100 mg/Kg, Study Day 1
  Glucose: 178 mg/dL
Patient 21, 100 mg/Kg, Study Day 7
  Glucose: 99 mg/dL
Patient 21, 100 mg/Kg, Study Day 9
  Glucose: 246 mg/dL
Patient 21, 100 mg/Kg, Study Day 14
  Glucose: 100 mg/dL
Patient 22, 100 mg/Kg, Study Day 0
  Glucose: 137 mg/dL
Patient 22, 100 mg/Kg, Study Day 1
  Glucose: 170 mg/dL
Patient 22, 100 mg/Kg, Study Day 7
  Glucose: 108 mg/dL
Patient 22, 100 mg/Kg, Study Day 9
  Glucose: 91 mg/dL
Patient 22, 100 mg/Kg, Study Day 14
  Glucose: 87 mg/dL
Patient 22, 100 mg/Kg, Study Day 17
  Glucose: 84 mg/dL
Patient 22, 100 mg/Kg, Study Day 21
  Glucose: 77 mg/dL
Patient 22, 100 mg/Kg, Study Day 25
  Glucose: 77 mg/dL
Patient 22, 100 mg/Kg, Study Day 28
  Glucose: 109 mg/dL
Patient 22, 100 mg/Kg, Study Day 33
  Glucose: 143 mg/dL
Patient 22, 100 mg/Kg, Study Day 40
  Glucose: 107 mg/dL
Patient 22, 100 mg/Kg, Study Day 47
  Glucose: 121 mg/dL
Patient 22, 100 mg/Kg, Study Day 49
  Glucose: 119 mg/dL
Patient 22, 100 mg/Kg, Study Day 54
  Glucose: 71 mg/dL
Patient 22, 100 mg/Kg, Study Day 61
  Glucose: 109 mg/dL
Patient 22, 100 mg/Kg, Study Day 69
  Glucose: 107 mg/dL
Patient 23, 100 mg/Kg, Study Day 0
  Glucose: 168 mg/dL
Patient 23, 100 mg/Kg, Study Day 1
  Glucose: 216 mg/dL
Patient 23, 100 mg/Kg, Study Day 7
  Glucose: 228 mg/dL
Patient 23, 100 mg/Kg, Study Day 9
  Glucose: 173 mg/dL
Patient 23, 100 mg/Kg, Study Day 17
  Glucose: 184 mg/dL
Patient 23, 100 mg/Kg, Study Day 21
  Glucose: 163 mg/dL
Patient 23, 100 mg/Kg, Study Day 25
  Glucose: 257 mg/dL
Patient 23, 100 mg/Kg, Study Day 28
  Glucose: 325 mg/dL
Patient 23, 100 mg/Kg, Study Day 33
  Glucose: 288 mg/dL
